Test results: publication PMC8173141
Results are given in words; binding and its absence hold for the method and conditions named. In cells and extracts the contact can be indirect. Some binding calls cover weakened binding; strength is not graded here.

Chains of the proteins cited; added tags and fusions are not shown.
UniProt C3VPR6: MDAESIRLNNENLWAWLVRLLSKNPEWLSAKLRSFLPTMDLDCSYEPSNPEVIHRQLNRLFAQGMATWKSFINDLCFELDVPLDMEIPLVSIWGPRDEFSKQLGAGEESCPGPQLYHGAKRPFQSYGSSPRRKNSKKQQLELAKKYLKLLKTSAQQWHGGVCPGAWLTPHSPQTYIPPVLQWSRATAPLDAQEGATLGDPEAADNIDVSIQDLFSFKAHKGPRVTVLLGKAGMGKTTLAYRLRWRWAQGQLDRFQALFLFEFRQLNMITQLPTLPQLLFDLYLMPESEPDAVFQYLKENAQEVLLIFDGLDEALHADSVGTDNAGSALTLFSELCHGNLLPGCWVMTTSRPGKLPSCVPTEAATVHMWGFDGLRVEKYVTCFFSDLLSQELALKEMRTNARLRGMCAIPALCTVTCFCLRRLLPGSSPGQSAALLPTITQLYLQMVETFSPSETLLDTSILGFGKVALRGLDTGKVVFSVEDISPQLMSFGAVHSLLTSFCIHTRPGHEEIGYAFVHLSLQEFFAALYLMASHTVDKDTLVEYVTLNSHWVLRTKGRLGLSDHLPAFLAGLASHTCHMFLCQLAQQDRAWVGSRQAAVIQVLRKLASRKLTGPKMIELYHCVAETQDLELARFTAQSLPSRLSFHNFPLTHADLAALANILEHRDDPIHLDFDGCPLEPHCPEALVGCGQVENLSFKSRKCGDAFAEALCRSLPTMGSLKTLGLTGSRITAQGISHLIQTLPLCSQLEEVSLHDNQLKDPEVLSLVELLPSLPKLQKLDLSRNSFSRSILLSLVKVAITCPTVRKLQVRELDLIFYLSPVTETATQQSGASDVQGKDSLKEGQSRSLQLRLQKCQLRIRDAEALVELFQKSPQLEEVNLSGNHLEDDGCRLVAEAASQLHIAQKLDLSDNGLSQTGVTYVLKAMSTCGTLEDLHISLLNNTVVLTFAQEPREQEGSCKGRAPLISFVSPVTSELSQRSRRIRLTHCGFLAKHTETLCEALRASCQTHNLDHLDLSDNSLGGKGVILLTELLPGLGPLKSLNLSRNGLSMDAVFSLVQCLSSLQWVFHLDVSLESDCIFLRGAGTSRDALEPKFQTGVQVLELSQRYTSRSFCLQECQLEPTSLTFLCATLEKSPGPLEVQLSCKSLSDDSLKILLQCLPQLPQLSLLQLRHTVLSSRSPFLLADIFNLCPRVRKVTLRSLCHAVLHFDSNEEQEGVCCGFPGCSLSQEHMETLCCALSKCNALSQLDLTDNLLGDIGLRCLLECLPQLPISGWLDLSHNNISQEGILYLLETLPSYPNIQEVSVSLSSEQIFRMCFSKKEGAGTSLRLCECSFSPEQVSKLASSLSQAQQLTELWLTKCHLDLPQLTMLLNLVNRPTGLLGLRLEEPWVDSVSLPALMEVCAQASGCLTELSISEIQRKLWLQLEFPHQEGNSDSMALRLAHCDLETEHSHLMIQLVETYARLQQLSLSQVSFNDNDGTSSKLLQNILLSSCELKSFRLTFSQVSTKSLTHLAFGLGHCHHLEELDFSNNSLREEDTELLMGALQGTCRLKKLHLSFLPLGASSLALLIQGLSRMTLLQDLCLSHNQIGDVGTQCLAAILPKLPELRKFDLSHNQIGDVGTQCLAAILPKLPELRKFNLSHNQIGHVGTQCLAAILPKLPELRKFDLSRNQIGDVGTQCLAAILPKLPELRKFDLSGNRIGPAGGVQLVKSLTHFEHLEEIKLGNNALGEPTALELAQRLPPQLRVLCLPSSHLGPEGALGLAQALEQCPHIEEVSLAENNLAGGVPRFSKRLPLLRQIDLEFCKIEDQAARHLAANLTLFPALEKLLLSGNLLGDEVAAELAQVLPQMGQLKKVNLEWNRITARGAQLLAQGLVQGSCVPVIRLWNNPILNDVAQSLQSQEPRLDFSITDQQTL
UniProt Q3UP24: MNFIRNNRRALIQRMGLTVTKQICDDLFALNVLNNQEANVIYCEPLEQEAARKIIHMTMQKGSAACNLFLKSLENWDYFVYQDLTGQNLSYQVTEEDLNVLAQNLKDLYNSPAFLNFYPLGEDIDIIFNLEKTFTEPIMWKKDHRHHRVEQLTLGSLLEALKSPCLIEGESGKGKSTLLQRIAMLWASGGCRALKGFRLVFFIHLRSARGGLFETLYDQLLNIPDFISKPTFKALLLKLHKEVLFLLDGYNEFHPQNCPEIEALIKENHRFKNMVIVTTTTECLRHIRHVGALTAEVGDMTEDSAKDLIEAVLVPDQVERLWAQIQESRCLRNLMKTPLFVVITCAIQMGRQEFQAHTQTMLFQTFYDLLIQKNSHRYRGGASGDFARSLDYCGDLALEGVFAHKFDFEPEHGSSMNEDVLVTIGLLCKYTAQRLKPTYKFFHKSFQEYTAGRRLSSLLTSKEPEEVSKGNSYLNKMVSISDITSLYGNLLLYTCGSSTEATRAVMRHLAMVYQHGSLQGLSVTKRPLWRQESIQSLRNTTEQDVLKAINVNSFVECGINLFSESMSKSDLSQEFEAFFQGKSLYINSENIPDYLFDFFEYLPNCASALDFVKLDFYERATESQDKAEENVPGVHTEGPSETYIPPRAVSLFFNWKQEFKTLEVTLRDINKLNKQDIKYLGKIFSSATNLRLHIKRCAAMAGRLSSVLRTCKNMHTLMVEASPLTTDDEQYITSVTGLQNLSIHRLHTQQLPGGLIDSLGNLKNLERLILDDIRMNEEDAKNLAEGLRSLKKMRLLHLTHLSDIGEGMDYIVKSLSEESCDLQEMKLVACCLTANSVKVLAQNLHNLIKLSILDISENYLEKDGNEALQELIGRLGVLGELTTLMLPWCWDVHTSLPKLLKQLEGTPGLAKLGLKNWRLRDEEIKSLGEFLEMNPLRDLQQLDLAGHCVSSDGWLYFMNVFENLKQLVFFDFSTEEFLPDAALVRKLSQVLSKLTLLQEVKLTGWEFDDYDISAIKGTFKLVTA
UniProt Q8R4B8: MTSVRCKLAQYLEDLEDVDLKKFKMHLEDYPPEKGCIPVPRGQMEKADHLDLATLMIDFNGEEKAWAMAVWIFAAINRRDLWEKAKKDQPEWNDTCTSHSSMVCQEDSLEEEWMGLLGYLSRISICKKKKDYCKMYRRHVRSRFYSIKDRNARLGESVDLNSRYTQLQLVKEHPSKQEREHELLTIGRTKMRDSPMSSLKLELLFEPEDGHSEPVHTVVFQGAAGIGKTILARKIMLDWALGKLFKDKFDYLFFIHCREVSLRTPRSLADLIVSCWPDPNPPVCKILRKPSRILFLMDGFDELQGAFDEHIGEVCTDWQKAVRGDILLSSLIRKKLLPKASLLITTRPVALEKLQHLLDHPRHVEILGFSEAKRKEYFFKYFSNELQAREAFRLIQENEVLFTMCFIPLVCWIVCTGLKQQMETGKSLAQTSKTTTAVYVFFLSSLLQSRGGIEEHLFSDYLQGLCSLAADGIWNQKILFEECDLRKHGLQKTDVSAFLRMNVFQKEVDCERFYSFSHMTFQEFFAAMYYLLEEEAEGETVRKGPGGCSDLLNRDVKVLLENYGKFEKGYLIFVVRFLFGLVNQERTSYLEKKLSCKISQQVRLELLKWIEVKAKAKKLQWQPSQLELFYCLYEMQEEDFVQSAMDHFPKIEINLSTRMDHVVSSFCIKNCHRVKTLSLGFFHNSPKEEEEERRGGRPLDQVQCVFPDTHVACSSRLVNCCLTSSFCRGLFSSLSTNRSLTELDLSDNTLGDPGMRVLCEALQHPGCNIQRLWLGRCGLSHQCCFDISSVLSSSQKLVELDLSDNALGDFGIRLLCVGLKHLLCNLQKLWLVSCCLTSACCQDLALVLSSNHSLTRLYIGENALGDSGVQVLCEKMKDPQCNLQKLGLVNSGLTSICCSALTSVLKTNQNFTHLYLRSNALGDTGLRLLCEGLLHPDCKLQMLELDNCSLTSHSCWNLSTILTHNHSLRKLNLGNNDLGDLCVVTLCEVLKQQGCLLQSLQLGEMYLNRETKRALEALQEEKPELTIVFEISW

Target: NOD-, LRR- and CARD-containing 5 (NLRC5) (mouse (endogenous in BV2)) (UniProt C3VPR6)
Assay: co-IP; BV2 cell lysate (cells subjected to OGDR); anti-NLRC5 or control mouse IgG overnight at 4°C, Protein A/G-agarose beads 3 h, washed three times with cell lysis buffer, western blot

Row | Substance | binding
1 | NLRC4 (from UniProt Q3UP24 1-1024) | binds
2 | NLRP3 (from UniProt Q8R4B8 1-1033) | binds
